Shown are survivors of the treated group in tumour-free mice. Counts of survivors are from the toxicity check (mostly the fifth day) where no day follows; animals may have died later. Schedule codes are those of the source, taken here to give the interval after Q, in days (D) or hours (H), and the number of doses after X. Some entries were tested several times; the results are listed from low to high.
System: CD2F1 mice, nontumored, toxicity/survival
Assay: NCI In Vivo Anticancer Drug Screen. Data for tumor model Nontumored Animals (Toxicity Test) in CD2F1 (CDF1) mice

COc1cccc2c1C(=O)c1c(O)c3c(c(O)c1C2=O)C[C@@](O)(C(C)=O)C[C@@H]3OC1CC(N)C(O)C(C)O1 (stereo partly specified)
survivor count (dose: 0.02 mg/kg/injection, schedule: Q01DX009 (ip), vehicle: saline): 8 of 8
survivor count (dose: 0.03 mg/kg/injection, schedule: Q01DX009 (ip), vehicle: saline): 8 of 8
survivor count (dose: 0.06 mg/kg/injection, schedule: Q01DX009 (ip), vehicle: saline): 7 of 7 and 8 of 8
survivor count (dose: 0.13 mg/kg/injection, schedule: Q01DX009 (ip), vehicle: saline): 7 of 7 and 8 of 8
survivor count (dose: 0.25 mg/kg/injection, schedule: Q01DX009 (ip), vehicle: saline): 8 of 8
survivor count (dose: 0.5 mg/kg/injection, schedule: Q01DX009 (ip), vehicle: saline): 8 of 8
survivor count (dose: 0.62 mg/kg/injection, schedule: Q01DX001 (ip), vehicle: saline): 8 of 8
survivor count (dose: 1.0 mg/kg/injection, schedule: Q01DX009 (ip), vehicle: saline): 7 of 8 and 8 of 8
survivor count (dose: 1.25 mg/kg/injection, schedule: Q01DX001 (ip), vehicle: saline): 8 of 8
survivor count (dose: 1.5 mg/kg/injection, schedule: Q01DX009 (ip), vehicle: saline): 8 of 8
survivor count (dose: 2.0 mg/kg/injection, schedule: Q01DX009 (ip), vehicle: saline): 6 of 8, 7 of 8, 8 of 8
survivor count (dose: 2.5 mg/kg/injection, schedule: Q01DX001 (ip), vehicle: saline): 8 of 8
survivor count (dose: 3.1 mg/kg/injection, schedule: Q01DX001 (iv), vehicle: saline): 8 of 8
survivor count (dose: 4.0 mg/kg/injection, schedule: Q01DX009 (ip), vehicle: saline): 2 of 8, 5 of 8, 6 of 8, 7 of 8, 8 of 8
survivor count (dose: 5.0 mg/kg/injection, schedule: Q01DX001 (ip), vehicle: saline): 8 of 8
survivor count (dose: 5.18 mg/kg/injection, schedule: Q01DX001 (iv), vehicle: saline): 8 of 8
survivor count (dose: 8.64 mg/kg/injection, schedule: Q01DX001 (iv), vehicle: saline): 8 of 8
survivor count (dose: 10.0 mg/kg/injection, schedule: Q01DX001 (ip), vehicle: saline): 8 of 8
survivor count (dose: 14.4 mg/kg/injection, schedule: Q01DX001 (iv), vehicle: saline): 3 of 8 and 8 of 8
survivor count (dose: 24.0 mg/kg/injection, schedule: Q01DX001 (iv), vehicle: saline): 1 of 8, 6 of 8, 7 of 8, 8 of 8
survivor count (dose: 40.0 mg/kg/injection, schedule: Q01DX001 (iv), vehicle: saline): 0 of 8 and 8 of 8

Nc1nncs1
survivor count (dose: 4.0 mg/kg/injection, schedule: Q03HX024 (ip), vehicle: alkali diluted with saline): 8 of 8
survivor count (dose: 8.0 mg/kg/injection, schedule: Q03HX008 (ip), vehicle: alkali diluted with saline): 8 of 8
survivor count (dose: 8.0 mg/kg/injection, schedule: Q03HX016 (ip), vehicle: alkali diluted with saline): 8 of 8
survivor count (dose: 8.0 mg/kg/injection, schedule: Q03HX024 (ip), vehicle: alkali diluted with saline): 8 of 8
survivor count (dose: 16.0 mg/kg/injection, schedule: Q01DX005 (iv), vehicle: alkali diluted with saline): 8 of 8
survivor count (dose: 16.0 mg/kg/injection, schedule: Q01DX009 (ip), vehicle: alkali diluted with saline): 8 of 8
survivor count (dose: 16.0 mg/kg/injection, schedule: Q01DX009 (sc), vehicle: alkali diluted with saline): 8 of 8
survivor count (dose: 16.0 mg/kg/injection, schedule: Q03HX008 (ip), vehicle: alkali diluted with saline): 8 of 8
survivor count (dose: 16.0 mg/kg/injection, schedule: Q03HX016 (ip), vehicle: alkali diluted with saline): 8 of 8
survivor count (dose: 16.0 mg/kg/injection, schedule: Q03HX024 (ip), vehicle: alkali diluted with saline): 8 of 8
survivor count (dose: 32.0 mg/kg/injection, schedule: Q01DX001 (iv), vehicle: alkali diluted with saline): 8 of 8
survivor count (dose: 32.0 mg/kg/injection, schedule: Q01DX005 (iv), vehicle: alkali diluted with saline): 8 of 8
survivor count (dose: 32.0 mg/kg/injection, schedule: Q01DX009 (ip), vehicle: alkali diluted with saline): 8 of 8
survivor count (dose: 32.0 mg/kg/injection, schedule: Q01DX009 (sc), vehicle: alkali diluted with saline): 8 of 8
survivor count (dose: 32.0 mg/kg/injection, schedule: Q03HX008 (ip), vehicle: alkali diluted with saline): 8 of 8
survivor count (dose: 32.0 mg/kg/injection, schedule: Q03HX016 (ip), vehicle: alkali diluted with saline): 8 of 8
survivor count (dose: 32.0 mg/kg/injection, schedule: Q03HX024 (ip), vehicle: alkali diluted with saline): 7 of 8
survivor count (dose: 32.0 mg/kg/injection, schedule: Q04DX003 (ip), vehicle: alkali diluted with saline): 8 of 8
survivor count (dose: 64.0 mg/kg/injection, schedule: Q01DX001 (ip), vehicle: alkali diluted with saline): 8 of 8
survivor count (dose: 64.0 mg/kg/injection, schedule: Q01DX001 (iv), vehicle: alkali diluted with saline): 8 of 8
survivor count (dose: 64.0 mg/kg/injection, schedule: Q01DX001 (oral), vehicle: alkali diluted with saline): 6 of 8
survivor count (dose: 64.0 mg/kg/injection, schedule: Q01DX001 (sc), vehicle: alkali diluted with saline): 8 of 8
survivor count (dose: 64.0 mg/kg/injection, schedule: Q01DX005 (iv), vehicle: alkali diluted with saline): 8 of 8
survivor count (dose: 64.0 mg/kg/injection, schedule: Q01DX009 (ip), vehicle: alkali diluted with saline): 8 of 8
survivor count (dose: 64.0 mg/kg/injection, schedule: Q01DX009 (oral), vehicle: alkali diluted with saline): 8 of 8
survivor count (dose: 64.0 mg/kg/injection, schedule: Q01DX009 (sc), vehicle: alkali diluted with saline): 8 of 8
survivor count (dose: 64.0 mg/kg/injection, schedule: Q03HX008 (ip), vehicle: alkali diluted with saline): 8 of 8
survivor count (dose: 64.0 mg/kg/injection, schedule: Q03HX016 (ip), vehicle: alkali diluted with saline): 7 of 8
survivor count (dose: 64.0 mg/kg/injection, schedule: Q03HX024 (ip), vehicle: alkali diluted with saline): 5 of 8
survivor count (dose: 64.0 mg/kg/injection, schedule: Q04DX003 (ip), vehicle: alkali diluted with saline): 8 of 8
survivor count (dose: 64.0 mg/kg/injection, schedule: Q08DX002 (ip), vehicle: alkali diluted with saline): 8 of 8
survivor count (dose: 128.0 mg/kg/injection, schedule: Q01DX001 (ip), vehicle: alkali diluted with saline): 8 of 8
survivor count (dose: 128.0 mg/kg/injection, schedule: Q01DX001 (iv), vehicle: alkali diluted with saline): 8 of 8
survivor count (dose: 128.0 mg/kg/injection, schedule: Q01DX001 (oral), vehicle: alkali diluted with saline): 7 of 8
survivor count (dose: 128.0 mg/kg/injection, schedule: Q01DX001 (sc), vehicle: alkali diluted with saline): 8 of 8
survivor count (dose: 128.0 mg/kg/injection, schedule: Q01DX005 (iv), vehicle: alkali diluted with saline): 8 of 8
survivor count (dose: 128.0 mg/kg/injection, schedule: Q01DX009 (ip), vehicle: alkali diluted with saline): 8 of 8
survivor count (dose: 128.0 mg/kg/injection, schedule: Q01DX009 (oral), vehicle: alkali diluted with saline): 5 of 8
survivor count (dose: 128.0 mg/kg/injection, schedule: Q01DX009 (sc), vehicle: alkali diluted with saline): 8 of 8
survivor count (dose: 128.0 mg/kg/injection, schedule: Q03HX008 (ip), vehicle: alkali diluted with saline): 7 of 8
survivor count (dose: 128.0 mg/kg/injection, schedule: Q03HX016 (ip), vehicle: alkali diluted with saline): 8 of 8
survivor count (dose: 128.0 mg/kg/injection, schedule: Q04DX003 (ip), vehicle: alkali diluted with saline): 8 of 8
survivor count (dose: 128.0 mg/kg/injection, schedule: Q08DX002 (ip), vehicle: alkali diluted with saline): 8 of 8
survivor count (dose: 256.0 mg/kg/injection, schedule: Q01DX001 (ip), vehicle: alkali diluted with saline): 8 of 8
survivor count (dose: 256.0 mg/kg/injection, schedule: Q01DX001 (iv), vehicle: alkali diluted with saline): 8 of 8
survivor count (dose: 256.0 mg/kg/injection, schedule: Q01DX001 (oral), vehicle: alkali diluted with saline): 5 of 8
survivor count (dose: 256.0 mg/kg/injection, schedule: Q01DX001 (sc), vehicle: alkali diluted with saline): 8 of 8
survivor count (dose: 256.0 mg/kg/injection, schedule: Q01DX005 (iv), vehicle: alkali diluted with saline): 4 of 8
survivor count (dose: 256.0 mg/kg/injection, schedule: Q01DX009 (ip), vehicle: alkali diluted with saline): 5 of 8
survivor count (dose: 256.0 mg/kg/injection, schedule: Q01DX009 (oral), vehicle: alkali diluted with saline): 3 of 8
survivor count (dose: 256.0 mg/kg/injection, schedule: Q01DX009 (sc), vehicle: alkali diluted with saline): 6 of 8
survivor count (dose: 256.0 mg/kg/injection, schedule: Q04DX003 (ip), vehicle: alkali diluted with saline): 8 of 8
survivor count (dose: 256.0 mg/kg/injection, schedule: Q08DX002 (ip), vehicle: alkali diluted with saline): 8 of 8
survivor count (dose: 512.0 mg/kg/injection, schedule: Q01DX001 (ip), vehicle: alkali diluted with saline): 8 of 8
survivor count (dose: 512.0 mg/kg/injection, schedule: Q01DX001 (iv), vehicle: alkali diluted with saline): 8 of 8
survivor count (dose: 512.0 mg/kg/injection, schedule: Q01DX001 (oral), vehicle: alkali diluted with saline): 6 of 8
survivor count (dose: 512.0 mg/kg/injection, schedule: Q01DX001 (sc), vehicle: alkali diluted with saline): 8 of 8
survivor count (dose: 512.0 mg/kg/injection, schedule: Q01DX009 (oral), vehicle: alkali diluted with saline): 1 of 8
survivor count (dose: 512.0 mg/kg/injection, schedule: Q04DX003 (ip), vehicle: alkali diluted with saline): 8 of 8
survivor count (dose: 512.0 mg/kg/injection, schedule: Q08DX002 (ip), vehicle: alkali diluted with saline): 8 of 8
survivor count (dose: 1024.0 mg/kg/injection, schedule: Q01DX001 (ip), vehicle: alkali diluted with saline): 8 of 8
survivor count (dose: 1024.0 mg/kg/injection, schedule: Q01DX001 (oral), vehicle: alkali diluted with saline): 8 of 8
survivor count (dose: 1024.0 mg/kg/injection, schedule: Q01DX001 (sc), vehicle: alkali diluted with saline): 8 of 8
survivor count (dose: 1024.0 mg/kg/injection, schedule: Q01DX009 (oral), vehicle: alkali diluted with saline): 1 of 8
survivor count (dose: 1024.0 mg/kg/injection, schedule: Q08DX002 (ip), vehicle: alkali diluted with saline): 8 of 8

From PubChem BioAssay AID188 (DTP/NCI, 2004)
